Test results reported in article PMC10635833, “A MEC-2/stomatin condensate liquid-to-solid phase transition controls neuronal mechanotransduction during touch sensing” (Nature Cell Biology, 2023).
No constants are given. Whether binding was seen depends on the method and setting. Some binding calls cover weakened binding; strength is not graded here.

T1: UNC-89 SH3 domain (59–128) (C. elegans) (UniProt O01761)
T1 sequence: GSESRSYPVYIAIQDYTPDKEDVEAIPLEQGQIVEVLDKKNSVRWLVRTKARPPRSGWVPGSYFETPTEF


target: T1, UNC-89 SH3 domain (59–128) (C. elegans); test: NMR titration; 1H-15N correlation spectra of 15N,13C-labelled MEC-2 (371-481) with 10 molar equivalents of UNC-89 SH3 domain, and vice versa (one ratio, no series); chemical shift perturbations and intensity ratios I/I0; NMR experiments recorded at 278 K; NMR buffer 20 mM sodium phosphate pH 7.4, 1 mM TCEP, 0.05% NaN3; both purified

binding | Binder
binds weakly | MEC-2 C-terminal domain (residues 371–481), wild type (domain or fragment, UniProt Q27433 371-481) PPKVEEPPSLPKKIRSCCLYKYPDWVQGMVGSEGGGGHGHSHGGGGGGLGSSQGAFHPSQAGSGPSTTTTSGRPLLRSMREAQFHSAAPPISAPNQSQTSVSQLDPALLIR
no binding | MEC-2 C-terminal domain ∆PRM mutant (377PPxxP381→377AAxxA381) (domain or fragment, UniProt Q27433 371-481) PPKVEEAASLAKKIRSCCLYKYPDWVQGMVGSEGGGGHGHSHGGGGGGLGSSQGAFHPSQAGSGPSTTTTSGRPLLRSMREAQFHSAAPPISAPNQSQTSVSQLDPALLIR
binds weakly | MEC-2 C-terminal domain R385H mutant (domain or fragment, C. elegans, UniProt Q27433 371-481, looked up, MEC-2 (stomatin), C. elegans, C-terminal domain, residues 371-481 as for the wild-type construct, with R385H (allele u26); also called MEC-2 (R385H); u26 allele) PPKVEEPPSLPKKIHSCCLYKYPDWVQGMVGSEGGGGHGHSHGGGGGGLGSSQGAFHPSQAGSGPSTTTTSGRPLLRSMREAQFHSAAPPISAPNQSQTSVSQLDPALLIR
